# Paper PMC7845594, “Novel Immune Modulators Enhance Caenorhabditis elegans Resistance to Multiple Pathogens” (mSphere, 2021)
# Further values from the same series stand in other lists.
# System: C. elegans transcriptome
# Assay: Transcriptome profiling (Affymetrix microarrays), differentially expressed genes
# Assay type: in vivo, Caenorhabditis elegans
# Details: downregulated genes
# Experimental: To gain additional insight into the effect of LK molecules on C. elegans, young-adult, wild-type worms were treated with each drug at 100 µM for 8 h in the absence of pathogen. RNA was collected, and transcriptome profiling was performed.
# Data were determined using Affymetrix microarrays, as described in Materials and Methods. Download Table S3, XLSX file, 0.07 MB.
# Transcriptome profiling was performed on ∼6,000 wild-type, young adult worms incubated with either LK molecules or DMSO for 8 h. RNA isolation was performed using TRIzol extraction, followed by cleanup using RNeasy columns according to the manufacturer’s protocol. Each condition was analyzed in triplicate. Microarray data have been deposited in the GEO database, accession number GSE137516. […] Clustering and generation of the heat map was performed using Cluster 3.0 ([98]) and Treeview ([99]), respectively. Fold change of genes were normalized to average fold change of that gene over all clustered conditions. Genes and conditions were clustered using Euclidean distance and average linkages. […] Microarray data for non-LK molecules were collected from GEO omnibus. WormEXP was used as a secondary method for confirming statistical significance of potential pathways stimulated by each of the LK molecules ([100]). Gene ontologies were generated using DAVID ([101], [102]).
structure (smiles),measurement,setting,value
CN(C)/N=N/c1ccc(-c2cn(Cc3ccccc3)cn2)cc1 [LK38],Fold Change,"Affy_ID 171811_s_at, listed under genes K01D12.7 (LK34, LK38), C57047 (LK35), K01D12.15 (LK38)",0.3018
same,Fold Change,"Affy_ID 192118_s_at, listed under gene F10C1.7 (LK34, LK35) or F10C1.8 (LK38)",0.3484
same,Fold Change,"Affy_ID 194255_x_at, listed under gene F22A3.6 (LK34, LK35) or C68743 (LK38)",0.483
same,Fold Change,"Gene B0035.13, Affy_ID 188123_at",0.2972
same,Fold Change,"Gene B0218.1, Affy_ID 188358_at",0.1938
same,Fold Change,"Gene B0228.7, Affy_ID 187261_s_at",0.491
same,Fold Change,"Gene B0379.1, Affy_ID 179086_s_at",0.3504
same,Fold Change,"Gene B0507.8, Affy_ID 180569_at",0.339
same,Fold Change,"Gene C04G2.4, Affy_ID 172853_x_at",0.2605
same,Fold Change,"Gene C05C10.4, Affy_ID 189921_at",0.1668
same,Fold Change,"Gene C14C6.2, Affy_ID 183567_s_at",0.2228
same,Fold Change,"Gene C17B7.2, Affy_ID 181325_s_at",0.3145
same,Fold Change,"Gene C24D10.7, Affy_ID 172569_x_at",0.172
same,Fold Change,"Gene C24D10.8, Affy_ID 172527_x_at",0.2487
same,Fold Change,"Gene C27F2.4, Affy_ID 189651_s_at",0.4446
same,Fold Change,"Gene C27H5.4, Affy_ID 181334_s_at",0.423
same,Fold Change,"Gene C29F4.2, Affy_ID 190884_at",0.3468
same,Fold Change,"Gene C33F10.9, Affy_ID 172834_x_at",0.2643
same,Fold Change,"Gene C34F11.4, Affy_ID 172885_x_at",0.2545
same,Fold Change,"Gene C34F11.6, Affy_ID 172896_x_at",0.2433
same,Fold Change,"Gene C35D10.11, Affy_ID 172630_x_at",0.1527
same,Fold Change,"Gene CTEL54X.1, Affy_ID 185910_at",0.3164
same,Fold Change,"Gene D1086.2, Affy_ID 177478_at",0.2424
same,Fold Change,"Gene D2089.3, Affy_ID 178891_at",0.4379
same,Fold Change,"Gene F07A11.5, Affy_ID 188623_at",0.4158
same,Fold Change,"Gene F08G2.1, Affy_ID 192280_s_at",0.3636
same,Fold Change,"Gene F08G2.2, Affy_ID 172835_x_at",0.4439
same,Fold Change,"Gene F08G2.3, Affy_ID 172899_x_at",0.43
same,Fold Change,"Gene F08H9.8, Affy_ID 189993_at",0.3038
same,Fold Change,"Gene F09C12.7, Affy_ID 172687_x_at",0.2661
same,Fold Change,"Gene F11E6.3, Affy_ID 179439_s_at",0.3909
same,Fold Change,"Gene F11G11.8, Affy_ID 172546_x_at",0.3982
same,Fold Change,"Gene F13B6.3, Affy_ID 180766_at",0.1106
same,Fold Change,"Gene F17C11.2, Affy_ID 181257_at",0.3801
same,Fold Change,"Gene F17C11.4, Affy_ID 180312_at",0.2469
same,Fold Change,"Gene F20A1.1, Affy_ID 172426_x_at",0.4806
same,Fold Change,"Gene F20D6.5, Affy_ID 182519_at",0.1285
same,Fold Change,"Gene F23B2.11, Affy_ID 191274_s_at",0.3249
same,Fold Change,"Gene F26A3.4, Affy_ID 191521_s_at",0.273
same,Fold Change,"Gene F26G1.7, Affy_ID 172882_x_at",0.2384
same,Fold Change,"Gene F28H7.3, Affy_ID 187996_s_at",0.2413
same,Fold Change,"Gene F32B6.6, Affy_ID 172854_x_at",0.2584
same,Fold Change,"Gene F32G8.6, Affy_ID 190591_at",0.2447
same,Fold Change,"Gene F36D3.9, Affy_ID 189469_at",0.0313
same,Fold Change,"Gene F36H12.7, Affy_ID 172857_x_at",0.2238
same,Fold Change,"Gene F37A8.4, Affy_ID 188068_at",0.08741
same,Fold Change,"Gene F38A3.1, Affy_ID 188281_s_at",0.2113
same,Fold Change,"Gene F38E9.1, Affy_ID 180768_at",0.4693
same,Fold Change,"Gene F38E11.2, Affy_ID 192323_at",0.1638
same,Fold Change,"Gene F43C11.7, Affy_ID 186263_at",0.4148
same,Fold Change,"Gene F44C8.3, Affy_ID 192777_at",0.4925
same,Fold Change,"Gene F44C8.8, Affy_ID 189999_at",0.2454
same,Fold Change,"Gene F44D12.5, Affy_ID 172333_x_at",0.211
same,Fold Change,"Gene F44D12.7, Affy_ID 172327_x_at",0.152
same,Fold Change,"Gene F45D11.15, Affy_ID 186801_s_at",0.1969
same,Fold Change,"Gene F45E4.8, Affy_ID 183438_s_at",0.2476
same,Fold Change,"Gene F47B10.2, Affy_ID 191301_s_at",0.1971
same,Fold Change,"Gene F48G7.10, Affy_ID 184636_at",0.1582
same,Fold Change,"Gene F49E12.10, Affy_ID 190009_at",0.04402
same,Fold Change,"Gene F53A9.6, Affy_ID 172363_x_at",0.3136
same,Fold Change,"Gene F53A9.8, Affy_ID 180612_s_at",0.3321
same,Fold Change,"Gene F53F4.13, Affy_ID 182491_at",0.2444
same,Fold Change,"Gene F55F3.2, Affy_ID 189534_at",0.3483
same,Fold Change,"Gene F55G1.3, Affy_ID 172702_x_at",0.4912
same,Fold Change,"Gene F58A4.7, Affy_ID 192781_s_at",0.3315
same,Fold Change,"Gene F58A6.8, Affy_ID 172889_x_at",0.2177
same,Fold Change,"Gene F58A6.9, Affy_ID 172743_x_at",0.323
same,Fold Change,"Gene F58B3.1, Affy_ID 178236_s_at",0.331
same,Fold Change,"Gene F59B2.5, Affy_ID 187071_at",0.4503
same,Fold Change,"Gene H02I12.6, Affy_ID 172891_x_at",0.4283
same,Fold Change,"Gene H12D21.1, Affy_ID 172431_x_at",0.2562
same,Fold Change,"Gene K02D7.1, Affy_ID 189003_s_at",0.4538
same,Fold Change,"Gene K03H6.2, Affy_ID 183309_at",0.4008
same,Fold Change,"Gene K05F1.2, Affy_ID 172815_x_at",0.267
same,Fold Change,"Gene K05F1.7, Affy_ID 172904_x_at",0.2034
same,Fold Change,"Gene K07E8.3, Affy_ID 180256_at",0.02279
same,Fold Change,"Gene K07F5.1, Affy_ID 172893_x_at",0.2218
same,Fold Change,"Gene K07F5.2, Affy_ID 172852_x_at",0.2489
same,Fold Change,"Gene K07F5.3, Affy_ID 172907_x_at",0.2798
same,Fold Change,"Gene K07F5.5, Affy_ID 172245_x_at",0.3024
same,Fold Change,"Gene K08F4.8, Affy_ID 172934_x_at",0.2351
same,Fold Change,"Gene K08H2.8, Affy_ID 192460_at",0.4851
same,Fold Change,"Gene M01D7.5, Affy_ID 173242_s_at",0.2522
same,Fold Change,"Gene M05D6.7, Affy_ID 193914_at",0.2866
same,Fold Change,"Gene M18.1, Affy_ID 173632_s_at",0.2086
same,Fold Change,"Gene M163.1, Affy_ID 177298_at",0.4015
